Experimental data reported in PubChem BioAssay AID493014 (National Center for Advancing Translational Sciences (NCATS), 2011).
About 170 (0.05%) of roughly 340,000 compounds were called active. This list was built around the results that the source calls inconclusive (neither active nor inactive); the mix of calls is not that of the screen. Calls follow the shape of the dose curve; as a rule, active = well fitted inhibition curve with a large enough effect in the signal ratio, with a control signal flat (not every such curve was filed as active); inconclusive = small, poorly fitted or top-dose-only effect, or effect the other way, or a change in a side signal; inactive = flat fitted curve, though single readings scatter; the % refers to the signal ratio. Potencies of inconclusive entries are doubtful fits and often do not repeat.

assay: qHTS Assay to Find Inhibitors of Chronic Active B-Cell Receptor Signaling; settings: ABC-DLBCL IkBa-CBG/CBR reporter, luminescence ratio (green luciferase fused to IkBa over red control in TMD8 lymphoma cells), 4 h; activity change, negative = inhibition: at 46.1 µM (top of the series);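 as to activity change, negative = inhibition: plate controls were basal doxycycline-induced cells for no effect and cells given 10 µM MG132 for full effect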
In short: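 TMD8 human ABC-DLBCL cells with doxycycline-inducible IκBα–green luciferase fusion and unfused red luciferase, in 0.5% FBS medium; compounds up to 46 uM, 4 h at 37C. Green/red luminescence ratio, filter-overlap corrected, fitted to concentration-response curves.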
Potency is read from the fitted curve at half-maximal effect.

Compound	Potency	activity change, negative = inhibition
Cc1ccccc1-c1nn(-c2ccc(F)cc2F)cc1CNCCCN(C)C	inconclusive: 14.1 µM [falling, partial curve, poor fit]	
COC(=O)c1c(C)[nH]c(C(=O)CSc2ccc(Cl)cc2)c1C		inconclusive: 25%
Cc1noc(NS(=O)(=O)c2ccc(N/C=C/C(=O)c3ccc4c(c3)OCO4)cc2)c1C		inconclusive: -19.3%
CCc1ccc2[nH]c(=O)c(C(c3nnnn3CCOC)N3CCN(c4ccccc4F)CC3)cc2c1 (stereo unspecified)		inconclusive: 6%
CC1(C)Cc2c(C#N)c(SCCOc3ccccc3)nc(N3CCOCC3)c2CO1		inconclusive: 2.33%
O=C(CSc1cnc2ccccc2n1)c1ccc(F)cc1	inconclusive: 18.4 µM [falling, single point]	
Clc1ccc2c(NCc3ccccn3)ncnc2c1		inconclusive: 16.4%
CCOc1ccc(OCC(=O)Nc2ccc(OC)cc2)cc1		inconclusive: -0.216%
Cc1cc(C)nc(N/N=C/c2ccc(Cl)cc2)n1		inactive
CC(=O)NC(CC(=O)NNC(=O)C(C)Oc1ccccc1F)c1ccccc1 (stereo unspecified)		inconclusive: 5.97%
COc1cc2c(cc1OC)CN(C(=O)/C=C/c1cc(OC)c(OC)c(OC)c1)CC2	inconclusive: 11.2 µM [falling, partial curve]	
Cc1cc(NC(=O)c2ccc3c(c2)OCO3)ccc1NC(=O)c1ccccc1		inactive
CN(C)S(=O)(=O)c1cccc(C(=O)NCC2CCCO2)c1 (stereo unspecified)		inconclusive: -1.18%
COc1ccc(NC(=O)COC(=O)c2c3c(nc4ccccc24)CCCC3)cc1Cl	inconclusive: 29.1 µM [falling, single point]	
Nc1ccc(Nc2nc(-c3cc4ccccc4oc3=O)cs2)cc1		inactive
COc1ccc(COC(=O)c2n[nH]c3ccccc23)cc1F		inconclusive: -2.52%
S=C1NCN(CCc2ccccc2)CN1Cc1ccccc1		inactive
COC(=O)C1CCN(C(c2cccs2)c2sc3nc(C)nn3c2O)CC1 (stereo unspecified)		inconclusive: 7.81%
C/C(=N\NC(=O)c1cccc(O)c1)c1ccc(NC(=O)Cc2ccccc2)cc1	inconclusive: 31.6 µM [falling, partial curve]	
N#CCC(=O)Nc1ccc(C(=O)OCC(=O)Nc2cccc(C(F)(F)F)c2)cc1		inconclusive: -19.7%
Nc1ncnc2c1C(c1ccccc1)c1c(ccc3ccccc13)O2 (stereo unspecified)		inconclusive: -17%
Cc1cc(NC(=O)CSc2nnc3ccc(-c4ccc(F)cc4)nn23)no1		inconclusive: 10.9%
CC(C)(C)n1nc2c(c1NC(=O)c1cc([N+](=O)[O-])ccc1Cl)CS(=O)(=O)C2	inconclusive: 14.1 µM [falling, partial curve, poor fit]	
O=c1c2cc(-c3ccccc3)sc2nc2n1CCC2	inconclusive: 3.16 µM [falling, single point]	
CC(C)c1ccc(NC(=O)C(c2ccccc2)N2CCOCC2)cc1 (stereo unspecified)		inconclusive: 6.31%
O=C(CCCNC(=O)c1ccc(Cl)cc1)NCc1ccccc1Cl		inactive

Shown in CSV form: 16 of the compounds above
Compound,Potency,"activity change, negative = inhibition"
COC(=O)c1c(C)[nH]c(C(=O)CSc2ccc(Cl)cc2)c1C,,inconclusive: 25%
Cc1noc(NS(=O)(=O)c2ccc(N/C=C/C(=O)c3ccc4c(c3)OCO4)cc2)c1C,,inconclusive: -19.3%
Clc1ccc2c(NCc3ccccn3)ncnc2c1,,inconclusive: 16.4%
Cc1cc(C)nc(N/N=C/c2ccc(Cl)cc2)n1,,inactive
Cc1cc(NC(=O)c2ccc3c(c2)OCO3)ccc1NC(=O)c1ccccc1,,inactive
COc1ccc(NC(=O)COC(=O)c2c3c(nc4ccccc24)CCCC3)cc1Cl,"inconclusive: 29.1 µM [falling, single point]",
Nc1ccc(Nc2nc(-c3cc4ccccc4oc3=O)cs2)cc1,,inactive
S=C1NCN(CCc2ccccc2)CN1Cc1ccccc1,,inactive
COC(=O)C1CCN(C(c2cccs2)c2sc3nc(C)nn3c2O)CC1 (stereo unspecified),,inconclusive: 7.81%
N#CCC(=O)Nc1ccc(C(=O)OCC(=O)Nc2cccc(C(F)(F)F)c2)cc1,,inconclusive: -19.7%
Nc1ncnc2c1C(c1ccccc1)c1c(ccc3ccccc13)O2 (stereo unspecified),,inconclusive: -17%
Cc1cc(NC(=O)CSc2nnc3ccc(-c4ccc(F)cc4)nn23)no1,,inconclusive: 10.9%
CC(C)(C)n1nc2c(c1NC(=O)c1cc([N+](=O)[O-])ccc1Cl)CS(=O)(=O)C2,"inconclusive: 14.1 µM [falling, partial curve, poor fit]",
O=c1c2cc(-c3ccccc3)sc2nc2n1CCC2,"inconclusive: 3.16 µM [falling, single point]",
CC(C)c1ccc(NC(=O)C(c2ccccc2)N2CCOCC2)cc1 (stereo unspecified),,inconclusive: 6.31%
O=C(CCCNC(=O)c1ccc(Cl)cc1)NCc1ccccc1Cl,,inactive

Next part

Compound	Potency	activity change, negative = inhibition
CN(CC1COc2ccccc2O1)C(=O)c1ccc(Cl)c(S(=O)(=O)N2CCCCCC2)c1 (stereo unspecified)		inactive
CCc1ccc(NC(=O)[C@H](Cc2c[nH]c3ccccc23)NC(=O)[C@@H]2Cc3ccccc3CN2)cc1	inconclusive: 14.1 µM [rising, partial curve, poor fit]	
CCNC(=O)N1CCC(c2nc3ccccc3s2)CC1		inconclusive: 0.486%
O=C(NCC(=O)N1CCCC(C(F)(F)F)C1)c1ccc(Oc2ccccc2)cc1 (stereo unspecified)	inconclusive: 3.55 µM [falling, single point]	
Cc1cc(C(=O)c2ccc(C(C)(C)C)cc2)c(NC(=O)CCl)s1		inactive
Cc1cc(C)c(S(=O)(=O)c2ccccc2)c(OC(=O)c2c(Cl)cc(Cl)cc2Cl)n1		inconclusive: 0.965%
O=C(Nc1cccc(-n2cnnn2)c1)c1cnccc1Cl		inactive
CCOc1ccc(/C(O)=C2\C(=O)C(=O)N(c3ccc(OC)cc3)C2c2ccccc2[N+](=O)[O-])cc1 (stereo unspecified)		inconclusive: -28.4%
Cc1cc(NC(=O)COC(=O)c2ccc(S(=O)(=O)N3CCCC3)cc2)no1		inactive
O=C(O)CCNc1ccc(NCCC(=O)O)c2c1C(=O)c1ccccc1C2=O	inconclusive: 35.5 µM [falling, single point]	
C[C@H](CO)N1C[C@H](C)[C@@H](CN(C)C(=O)Nc2ccccc2)Oc2c(NS(=O)(=O)c3cn(C)cn3)cccc2C1=O		inconclusive: 3.62%
Clc1cccc(Nc2ncnc3ccc(Br)cc23)c1		inconclusive: -17%
Cc1nn(C)cc1S(=O)(=O)N1CCN(c2ccccc2F)CC1		inconclusive: -5.91%
CCc1cccc(NC(=O)c2ccc(Cn3nc(C)cc3C)o2)c1		inconclusive: 0.706%
CCOC(=O)Nc1ccc2c(COC(=O)CNS(=O)(=O)c3ccc(NC(C)=O)cc3)cc(=O)oc2c1		inconclusive: 0.137%
CCOC(=O)C(NC(=O)CC(C)C)(Nc1sc(C)c(CC)c1C#N)C(F)(F)F (stereo unspecified)		inactive
O=C(Nc1nnc(-c2ccccc2SCc2ccccc2)s1)Nc1ccccc1F		inconclusive: 6.46%
N/C(=N\OC(=O)CC1CCCCC1)c1ccc(Br)cc1		inconclusive: 12%
Cc1cn(CCC(=O)Nc2ccc(N3CCOCC3)cc2)c2ccccc12		inconclusive: 2.98%
COc1c(C)cc(C(=O)C2CCCN(C(=O)CCCn3cncn3)C2)cc1C (stereo unspecified)		inactive
Cc1cccc(N2CCN(Cc3nc(-c4ccc(F)cc4F)oc3C)CC2)n1	inconclusive: 6.31 µM [falling, single point]	
COc1ccc(-n2c(C)nn(CCOc3ccccc3)c2=O)cc1		inconclusive: 5.6%
O=C(N/N=C/c1c(F)c(F)c(F)c(F)c1F)c1cc(-c2ccccc2)nc2ccccc12		inconclusive: 0.77%
COc1cccc(N2C(=O)N(CC(=O)NCc3cccc(OC)c3OC)c3ccccc3S2(=O)=O)c1		inactive
COc1cc(C(=O)NCCNc2nc3c(C)c(C)ccc3cc2C#N)cc(OC)c1OC		inactive
